For three substances, binding results are on record in publication PMC4605301.

Chains of the proteins cited; added tags and fusions are not shown.
UniProt O15527: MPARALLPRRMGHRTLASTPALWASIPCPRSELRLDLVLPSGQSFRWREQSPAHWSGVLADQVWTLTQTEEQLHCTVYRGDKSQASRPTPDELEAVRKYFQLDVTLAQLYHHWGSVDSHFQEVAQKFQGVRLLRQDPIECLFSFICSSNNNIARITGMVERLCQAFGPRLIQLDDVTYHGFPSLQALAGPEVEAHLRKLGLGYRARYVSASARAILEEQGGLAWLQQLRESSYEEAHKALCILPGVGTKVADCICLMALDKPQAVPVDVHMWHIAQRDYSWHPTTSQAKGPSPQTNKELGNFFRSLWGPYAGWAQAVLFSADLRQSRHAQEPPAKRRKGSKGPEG

The target in experiment [1] is T1, hSSB1 1–199 (human) (UniProt Q9BQ15).
T1 sequence: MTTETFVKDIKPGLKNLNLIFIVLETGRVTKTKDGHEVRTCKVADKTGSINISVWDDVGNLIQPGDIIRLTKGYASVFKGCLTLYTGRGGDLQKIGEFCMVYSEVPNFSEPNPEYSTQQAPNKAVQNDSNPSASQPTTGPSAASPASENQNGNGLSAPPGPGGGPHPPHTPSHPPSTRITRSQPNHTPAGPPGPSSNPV
Description: pull-down; hSSB1 (full length or truncated) immobilised on cyanogen bromide-activated Sepharose 4B, incubated with 2 μg GST-hOGG1 or GST; supernatant, wash and SDS eluate on SDS-PAGE, Coomassie blue; both purified.

In experiment [2] the target is T2, hSSB1 1–179 (human) (UniProt Q9BQ15).
T2 sequence: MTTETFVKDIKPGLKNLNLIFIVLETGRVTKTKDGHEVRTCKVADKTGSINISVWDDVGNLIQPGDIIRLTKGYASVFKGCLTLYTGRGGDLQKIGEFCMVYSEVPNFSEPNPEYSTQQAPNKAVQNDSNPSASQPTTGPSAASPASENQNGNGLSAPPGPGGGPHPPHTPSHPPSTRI
The description is as above.

For experiment [3], the target named is human single-stranded DNA-binding protein 1 (hSSB1), endogenous (human (endogenous in U2OS)) (UniProt Q9BQ15). Description: co-IP; reciprocal immunoprecipitation with anti-hSSB1 or anti-hOGG1 antibody from U2OS cell lysates, cells treated or untreated with H2O2; protein A/G Dynabeads, washed five times in NP40 buffer (20 mM HEPES pH 8.0, 150 mM KCl, 0.2% NP40); immunoblot.

Experiment [4] concerns the target human 8-oxoguanine glycosylase 1 (hOGG1), endogenous (human (endogenous in U2OS)) (UniProt O15527). Described as above.

These are yes or no findings as the source states them, for the method shown. For some of these results: Binding seen in cells or lysates may run through a third protein. Some entries that bind do so weakly or less than the wild type.

With “GST-hOGG1 wild type (from UniProt O15527 1-345) (enzyme)”, the binding entry in experiment [1] is reported as “binds”; in experiment [2], “no binding (tested: 2 μg GST-tagged hOGG1)”.

With “human 8-oxoguanine glycosylase 1 (hOGG1), endogenous (from UniProt O15527 1-345) (enzyme)”, in experiment [3], the binding entry was “binds”.

Consider “human single-stranded DNA-binding protein 1 (hSSB1), endogenous (from UniProt Q9BQ15 1-211)”, for which the binding result in experiment [4] was “binds”.
